The target in experiment [1] is T1, FLAG-tagged YTHDF3 mutant (W438A, W492A in the YTH domain) (UniProt Q7Z739).
T1 sequence: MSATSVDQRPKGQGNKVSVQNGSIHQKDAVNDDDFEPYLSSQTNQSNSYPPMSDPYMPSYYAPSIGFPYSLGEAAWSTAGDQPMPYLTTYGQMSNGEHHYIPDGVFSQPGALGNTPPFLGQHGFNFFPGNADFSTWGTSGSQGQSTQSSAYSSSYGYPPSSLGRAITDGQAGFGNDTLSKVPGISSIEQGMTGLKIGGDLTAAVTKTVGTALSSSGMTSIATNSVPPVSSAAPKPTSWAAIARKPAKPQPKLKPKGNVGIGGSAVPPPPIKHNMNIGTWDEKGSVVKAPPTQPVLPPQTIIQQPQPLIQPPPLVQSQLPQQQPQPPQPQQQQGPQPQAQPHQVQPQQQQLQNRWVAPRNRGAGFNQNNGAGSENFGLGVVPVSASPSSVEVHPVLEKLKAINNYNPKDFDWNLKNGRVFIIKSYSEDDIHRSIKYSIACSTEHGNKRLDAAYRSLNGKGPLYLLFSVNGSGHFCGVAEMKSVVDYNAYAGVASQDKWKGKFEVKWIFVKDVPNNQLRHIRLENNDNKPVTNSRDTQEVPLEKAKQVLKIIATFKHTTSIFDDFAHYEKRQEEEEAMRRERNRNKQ
Description: co-IP; MCF-7 cell lysates (1 x 10^7 cells), immunoprecipitated by the Flag tag of YTHDF3 with antibody-coupled agarose beads, Western blot for FGF2; IgG as negative control.

The chains behind the UniProt entries cited, without tags or fusion partners. Where a name states a change or a piece, a line headed by the entry shows the natural chain unless it says otherwise.
UniProt P09038: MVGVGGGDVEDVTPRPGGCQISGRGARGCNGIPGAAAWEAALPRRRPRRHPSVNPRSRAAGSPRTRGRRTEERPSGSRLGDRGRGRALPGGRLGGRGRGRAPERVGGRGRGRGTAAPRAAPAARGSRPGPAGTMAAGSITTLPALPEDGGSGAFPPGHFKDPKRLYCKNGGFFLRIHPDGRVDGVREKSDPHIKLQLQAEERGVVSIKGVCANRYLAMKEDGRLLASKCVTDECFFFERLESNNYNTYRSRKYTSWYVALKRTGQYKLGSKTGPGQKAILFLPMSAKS

The target of experiment [2] is FLAG-tagged wild-type YTHDF3 (YTH N6-methyladenosine RNA binding protein 3) (UniProt Q7Z739). The description is as above.
Experiment [3] deals with fibroblast growth factor 2 (FGF2) (human (endogenous in MCF-7)) (UniProt P09038). The experiment is described as follows: co-IP; reverse co-IP: MCF-7 cell lysates immunoprecipitated for FGF2 with antibody-coupled agarose beads, Western blot for YTHDF3; IgG as negative control.

Results are given in words; binding and its absence hold for the method and conditions named. Binding seen in cells or lysates may run through a third protein. Binding can be weak; no strength is given. For part of these data: Where a sequence is shown, tags or fusion partners need not be part of it.

Turning to “fibroblast growth factor 2 (FGF2) (from UniProt P09038)”, the binding entry in experiment [1] and in experiment [2] was “binds” each time.

“FLAG-tagged wild-type YTHDF3 (YTH N6-methyladenosine RNA binding protein 3) (from UniProt Q7Z739 1-585)”: in experiment [3], the binding entry is on record as “binds”.

(Values after paper PMC11449838.)
